This passage reports IC50, binding result and Kd results from patent US20170166895.

Chains of the proteins cited; added tags and fusions are not shown. A line that says so, or that is headed by a name, gives the form on record, which may keep a tag or linker.
Complement component 3 (C3) (Homo sapiens), one chain, as listed by the source, chain 1 of 2: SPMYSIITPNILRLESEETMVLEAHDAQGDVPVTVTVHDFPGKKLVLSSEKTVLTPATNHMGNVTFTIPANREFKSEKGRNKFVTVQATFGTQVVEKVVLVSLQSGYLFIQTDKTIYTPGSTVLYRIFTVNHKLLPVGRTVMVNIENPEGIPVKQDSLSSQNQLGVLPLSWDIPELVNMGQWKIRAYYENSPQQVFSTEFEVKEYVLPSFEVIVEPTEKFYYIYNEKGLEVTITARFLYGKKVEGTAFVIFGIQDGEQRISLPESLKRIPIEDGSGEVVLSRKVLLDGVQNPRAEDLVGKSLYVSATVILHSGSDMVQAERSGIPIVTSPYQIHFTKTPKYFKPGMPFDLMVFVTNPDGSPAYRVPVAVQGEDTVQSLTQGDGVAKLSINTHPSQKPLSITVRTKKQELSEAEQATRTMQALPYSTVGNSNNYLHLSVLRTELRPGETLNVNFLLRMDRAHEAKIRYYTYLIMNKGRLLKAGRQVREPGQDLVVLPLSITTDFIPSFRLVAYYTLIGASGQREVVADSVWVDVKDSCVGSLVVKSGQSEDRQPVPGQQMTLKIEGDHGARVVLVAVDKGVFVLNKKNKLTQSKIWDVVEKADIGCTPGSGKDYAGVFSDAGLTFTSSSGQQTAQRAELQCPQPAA
Complement component 5 (C5) (Homo sapiens), one chain, as listed by the source, chain 1 of 2: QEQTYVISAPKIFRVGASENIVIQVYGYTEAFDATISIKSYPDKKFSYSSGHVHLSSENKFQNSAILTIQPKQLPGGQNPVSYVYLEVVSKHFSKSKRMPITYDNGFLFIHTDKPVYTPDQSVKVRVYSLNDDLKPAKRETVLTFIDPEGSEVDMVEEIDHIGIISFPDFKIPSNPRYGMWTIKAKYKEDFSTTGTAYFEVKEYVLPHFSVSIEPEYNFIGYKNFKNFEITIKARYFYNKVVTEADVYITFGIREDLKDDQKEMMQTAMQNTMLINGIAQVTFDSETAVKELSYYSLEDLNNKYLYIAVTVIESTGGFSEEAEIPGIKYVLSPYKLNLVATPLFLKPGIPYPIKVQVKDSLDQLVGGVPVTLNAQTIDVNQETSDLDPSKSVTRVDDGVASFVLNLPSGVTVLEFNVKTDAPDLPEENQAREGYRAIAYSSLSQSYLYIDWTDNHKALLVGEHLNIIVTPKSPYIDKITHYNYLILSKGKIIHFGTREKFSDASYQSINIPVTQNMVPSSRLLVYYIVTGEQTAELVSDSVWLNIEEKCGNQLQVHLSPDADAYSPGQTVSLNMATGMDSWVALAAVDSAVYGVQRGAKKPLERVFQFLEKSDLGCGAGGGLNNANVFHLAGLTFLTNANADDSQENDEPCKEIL
Complement component 3 (C3) (Homo sapiens), one chain, as listed by the source, chain 2 of 2: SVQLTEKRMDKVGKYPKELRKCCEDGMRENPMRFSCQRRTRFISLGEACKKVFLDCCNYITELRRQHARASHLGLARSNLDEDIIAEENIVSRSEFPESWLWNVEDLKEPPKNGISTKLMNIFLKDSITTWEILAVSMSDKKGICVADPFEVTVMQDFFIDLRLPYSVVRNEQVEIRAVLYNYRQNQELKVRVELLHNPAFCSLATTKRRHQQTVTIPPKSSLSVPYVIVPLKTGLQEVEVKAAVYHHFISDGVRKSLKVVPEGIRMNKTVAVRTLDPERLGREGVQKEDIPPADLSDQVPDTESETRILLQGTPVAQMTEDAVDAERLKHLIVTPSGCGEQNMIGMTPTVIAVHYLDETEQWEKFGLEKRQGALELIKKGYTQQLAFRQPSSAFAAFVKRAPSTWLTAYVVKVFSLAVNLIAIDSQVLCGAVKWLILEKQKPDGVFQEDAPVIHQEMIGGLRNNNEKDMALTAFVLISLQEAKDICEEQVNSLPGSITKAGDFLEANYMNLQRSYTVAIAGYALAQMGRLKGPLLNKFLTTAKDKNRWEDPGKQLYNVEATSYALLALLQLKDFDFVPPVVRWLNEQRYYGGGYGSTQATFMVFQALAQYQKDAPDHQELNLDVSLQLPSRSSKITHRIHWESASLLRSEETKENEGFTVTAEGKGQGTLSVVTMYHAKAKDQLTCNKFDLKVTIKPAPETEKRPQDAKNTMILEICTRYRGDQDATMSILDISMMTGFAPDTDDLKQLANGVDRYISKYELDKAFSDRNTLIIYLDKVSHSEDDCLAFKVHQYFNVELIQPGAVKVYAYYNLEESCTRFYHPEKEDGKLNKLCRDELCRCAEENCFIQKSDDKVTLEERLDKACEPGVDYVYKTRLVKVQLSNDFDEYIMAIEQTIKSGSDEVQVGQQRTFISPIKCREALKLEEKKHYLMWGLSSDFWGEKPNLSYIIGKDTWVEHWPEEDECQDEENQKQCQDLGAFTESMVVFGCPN
Complement component 5 (C5) (Homo sapiens), one chain, as listed by the source, chain 2 of 2: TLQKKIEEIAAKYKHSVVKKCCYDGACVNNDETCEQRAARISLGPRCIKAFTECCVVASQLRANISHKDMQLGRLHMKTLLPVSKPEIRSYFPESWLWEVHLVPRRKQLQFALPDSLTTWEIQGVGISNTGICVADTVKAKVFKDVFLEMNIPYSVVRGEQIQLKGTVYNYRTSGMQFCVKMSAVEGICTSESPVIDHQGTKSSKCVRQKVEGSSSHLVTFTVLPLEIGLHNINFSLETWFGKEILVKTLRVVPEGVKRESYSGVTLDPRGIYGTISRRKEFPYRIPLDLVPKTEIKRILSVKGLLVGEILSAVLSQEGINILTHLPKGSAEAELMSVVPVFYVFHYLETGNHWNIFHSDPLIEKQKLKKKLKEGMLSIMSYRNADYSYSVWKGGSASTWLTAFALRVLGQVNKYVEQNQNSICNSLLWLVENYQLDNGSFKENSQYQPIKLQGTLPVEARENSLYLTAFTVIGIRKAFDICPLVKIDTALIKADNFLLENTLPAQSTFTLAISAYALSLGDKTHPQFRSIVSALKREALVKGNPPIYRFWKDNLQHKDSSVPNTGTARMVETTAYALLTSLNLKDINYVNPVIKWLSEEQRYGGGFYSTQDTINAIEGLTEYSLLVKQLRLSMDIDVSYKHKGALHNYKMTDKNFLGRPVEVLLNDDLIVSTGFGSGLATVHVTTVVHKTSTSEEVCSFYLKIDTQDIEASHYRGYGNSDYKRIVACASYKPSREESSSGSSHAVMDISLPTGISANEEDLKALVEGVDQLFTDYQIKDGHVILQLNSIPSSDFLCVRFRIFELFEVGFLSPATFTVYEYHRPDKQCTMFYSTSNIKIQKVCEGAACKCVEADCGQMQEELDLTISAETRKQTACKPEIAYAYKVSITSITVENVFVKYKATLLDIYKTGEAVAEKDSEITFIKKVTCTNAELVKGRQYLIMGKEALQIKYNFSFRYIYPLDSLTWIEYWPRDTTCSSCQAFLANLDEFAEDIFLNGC

For part of these data: A negative result means that nothing was seen under these conditions. For part of these data: Construct, isoform or probe ends are uncertain for at least one entry.

Data set [1] deals with Complement component 3 (C3) (Homo sapiens). Kind of data set: inhibition of the protein. As to conditions: P = NapdU (all U), 3'-3' idT, 20 nM C3, GVB++, 37 C, single-stranded DNA.
For data set [2] the test system is unchanged. Kind of data set: filter binding. As to conditions: 3'-3' idT, purified recombinant protein, single-stranded DNA; for binding result: all U in listing = NapdU, NB, no binding; for Kd: all U = NapdU, NB up to 100 nM C3.
In data set [3] the test system is Complement component 5 (C5) (Homo sapiens). Kind of data set: filter binding. As to conditions: all U = NapdU, 3'-3' idT, no discernible binding up to 1e-7 M C5, single-stranded DNA.

By IC50 is commonly meant the concentration at which inhibition is half-maximal. A low value points to greater potency. In data set [1] (5 bases of each flanking primer also present (not shown), hemolysis of sheep red blood cells, C3a release in 34% serum IC50 2 uM, purified native protein), “CCGGUGACUCAAUAGUCCGUACGUUCCCGGUCCGAACGCG [8491-94_3]” yielded an IC50 of 14.8 nM.
With “CCGGUGAUCAAUAGUCCGUACGUUCCCGG [8491-94_36]”, the IC50 in data set [1] (C3-spacer replaces C8, hemolysis, purified native protein, variant of 8491-94_26) is 25 nM.
On to “CCGGUGACUCAAUAGUCGUACGUUCCCGG [8491-94_43]”, for which the IC50 in data set [1] (C3-spacer replaces C18, hemolysis, purified native protein, variant of 8491-94_26) stood at 19.2 nM.
Take “ACTCCCGUGACUCGAUGAGUCAUAGUCGGUUCCGUCCGAACGCGGAGGA [8491-398_3]”: in data set [2], the binding result is listed as “no binding”.
The sequence “CCGGUGACUAAUAGUCCGUACGUUCCCGG [8491-94_37]” came in with a half-maximal inhibitory concentration (IC50) in data set [1] (C3-spacer replaces C10, hemolysis, purified native protein, variant of 8491-94_26) of 24.7 nM.
Turning to “CGGUGACUCAAUAGUCCGUACGUUCCCG [8491-94_97]”, the binding result in data set [3] (2'-OMe at 1,2,3,5,7,9,10,13,19,20,22-28, variant of 8491-94_53) is listed as “no binding”.
Take “ACTCCGAGUACUUCGACUCAAUAGUCCGUUACGUUUGGCCGGCAGGCGAGGA [8491-401_3]”: the binding result in data set [2] is recorded as “no binding”.
As usually defined, the Kd is a measure of binding affinity in units of concentration. As for “CGGUGACUCAAUAGUCCGUACGUUCCCG [8491-94_92]”, the dissociation constant (Kd) in data set [2] (2'-OMe at 1,3,5,7,10,13,19,23,24,25,28, variant of 8491-94_53) is above 100 nM.
“CGGUGACUCAAUAGUCCGUACGUUCCCGG [8491-94_30]” displayed a half-maximal inhibitory concentration (IC50) in data set [1] (C3-spacer replaces C1, hemolysis, purified native protein, variant of 8491-94_26) of 20.9 nM.
With “CCGGUGACUCAAUAGUCCGUACUUCCCGG [8491-94_47]”, the equilibrium dissociation constant (Kd) in data set [2] (C3-spacer replaces G23, variant of 8491-94_26) is above 100 nM.
For the sequence “CGGUGACUCAAUAGUCCGUACGUUCCCG [8491-94_53]”, the binding result in data set [3] (variant of 8491-94_3) was “no binding”.
As for “CAGUGACUCAAUAGUCCAUACAUUCCCA [8491-94_126]”, the Kd in data set [2] (2'-OMe at 1,3,5,7,9,10,13,19,20,23-27, variant of 8491-94_53) is above 100 nM.
For “CGGUGACUCAAUAGUCCGUACGUUCCCG [8491-94_91]”, in data set [2] (2'-OMe at 1,3,5,7,10,13,19,23,24,28, variant of 8491-94_53), the Kd is above 100 nM.
Take CGGUGAUCAAUAGUCGUACGUUCCG [8491-94_100]: in data set [1] (2'-OMe at 1,2,3,5,9,10,13,19,20,22,23,24,26,27,28, C3-spacer at 7,17,25, hemolysis, purified native …, variant of 8491-94_53), the IC50 is 19.7 nM.
As to “CCGGUGACUCAAUAGUCCGUAGUUCCCGG [8491-94_46]”, in data set [2] (C3-spacer replaces C22, variant of 8491-94_26), the Kd was above 100 nM.
